Test results published in the supplement of paper PMC6078165.

Tests used:
Hs578T = experiment: relative JC-1 red fluorescence (viability) vs pre-drug, monoculture (fraction); higher = more viable cancer cells; settings: coculture fibroblast: none (monoculture)
Experimental: (§1)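 JC-1 labelled TNBC cells grown in monoculture (density kept equal with unlabelled cancer cells) in 384-well plates in FluoroBrite medium, treated with one of 42 anticancer drugs at 0.1, 1, 10 or 100 uM. JC-1 red fluorescence (mitochondrial integrity, surrogate of apoptotic death) was read by plate reader every 8 h for 72 h. Values are normalised to each well's pre-drug value, with background from alamethicin. The stock of one drug was tenfold lower, so its dose labels may be too high. Monoculture values are repeated alongside each fibroblast plate and are averaged here.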

HCC1143 = experiment: as above; settings: coculture fibroblast: none (monoculture)
Experimental: as §1

C=C1C[C@@H]2[C@H](CC[C@]3(C)C(=O)CC[C@@H]23)[C@@]2(C)C=CC(=O)C=C12 [Exemestane]
relative JC-1 red fluorescence
Settings | 8 h | 16 h | 24 h | 32 h | 40 h | 48 h | 56 h | 64 h | 72 h
HCC1143, 0.1 µM | 0.8779 ± 0.0028 | 0.812 ± 0.0099 | 0.73659 ± 0.00056 | 0.6815 ± 0.0037 | 0.626 ± 0.011 | 0.585 ± 0.018 | 0.56 ± 0.021 | 0.538 ± 0.027 | 0.521 ± 0.031
HCC1143, 1 µM | 0.875 ± 0.012 | 0.7959 ± 0.0025 | 0.71949 ± 3.9e-05 | 0.635 ± 0.0086 | 0.588 ± 0.016 | 0.55 ± 0.022 | 0.518 ± 0.015 | 0.492 ± 0.022 | 0.473 ± 0.015
HCC1143, 10 µM | 0.949 ± 0.01 | 0.857 ± 0.018 | 0.793 ± 0.023 | 0.74 ± 0.02 | 0.681 ± 0.03 | 0.633 ± 0.029 | 0.578 ± 0.049 | 0.537 ± 0.062 | 0.512 ± 0.066
HCC1143, 100 µM | 0.878 ± 0.031 | 0.762 ± 0.073 | 0.696 ± 0.12 | 0.625 ± 0.14 | 0.565 ± 0.15 | 0.526 ± 0.14 | 0.504 ± 0.13 | 0.497 ± 0.1 | 0.501 ± 0.097
Hs578T, 0.1 µM | 0.8381 ± 0.003 | 0.767 ± 0.018 | 0.687 ± 0.021 | 0.655 ± 0.029 | 0.619 ± 0.037 | 0.593 ± 0.045 | 0.561 ± 0.037 | 0.548 ± 0.045 | 0.53 ± 0.045
Hs578T, 1 µM | 0.8239 ± 0.0043 | 0.7354 ± 0.0073 | 0.673 ± 0.021 | 0.598 ± 0.022 | 0.557 ± 0.028 | 0.539 ± 0.028 | 0.511 ± 0.035 | 0.507 ± 0.045 | 0.49 ± 0.049
Hs578T, 10 µM | 0.8511 ± 0.00061 | 0.781 ± 0.014 | 0.72 ± 0.017 | 0.688 ± 0.016 | 0.644 ± 0.021 | 0.621 ± 0.025 | 0.599 ± 0.037 | 0.586 ± 0.036 | 0.57 ± 0.044
Hs578T, 100 µM | 0.867 ± 0.01 | 0.785 ± 0.024 | 0.6953 ± 0.0019 | 0.625 ± 0.015 | 0.562 ± 0.017 | 0.518 ± 0.015 | 0.47 ± 0.019 | 0.452 ± 0.017 | 0.43 ± 0.016

± gives the standard deviation of the averaged measurements. Values are relative to the signal before dosing, not to a vehicle control; the signal also falls without drug.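 Cells used are triple-negative breast cancer lines, either basal-like or mesenchymal-like, grown in the absence of fibroblasts. Lower red signal means mitochondrial integrity is lost, a surrogate for apoptosis.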
